According to article PMC9882608, “Structure of an endogenous mycobacterial MCE lipid transporter” (Research Square, 2023):
No constants are given. Whether binding was seen depends on the method and setting. A result given as binding can be weak or reduced; the word gives no strength.

Amino acid sequences for entries named in this document (tags omitted). A change or cut given only in a name is not applied to a line headed by its entry.
UniProt A0QNR4: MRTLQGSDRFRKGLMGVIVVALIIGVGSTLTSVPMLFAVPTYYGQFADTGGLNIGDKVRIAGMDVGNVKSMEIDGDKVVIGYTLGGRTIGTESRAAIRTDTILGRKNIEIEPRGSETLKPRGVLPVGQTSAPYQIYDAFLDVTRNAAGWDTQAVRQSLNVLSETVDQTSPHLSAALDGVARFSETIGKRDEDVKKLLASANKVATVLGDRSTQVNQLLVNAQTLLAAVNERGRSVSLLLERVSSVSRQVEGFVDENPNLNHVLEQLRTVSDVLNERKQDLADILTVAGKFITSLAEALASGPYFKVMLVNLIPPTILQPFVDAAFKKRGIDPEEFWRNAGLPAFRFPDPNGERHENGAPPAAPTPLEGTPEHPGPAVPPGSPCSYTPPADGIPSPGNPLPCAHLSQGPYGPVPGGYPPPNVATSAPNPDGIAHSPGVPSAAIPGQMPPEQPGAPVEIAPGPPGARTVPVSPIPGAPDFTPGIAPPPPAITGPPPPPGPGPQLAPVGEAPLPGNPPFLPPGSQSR
UniProt A0QNR5: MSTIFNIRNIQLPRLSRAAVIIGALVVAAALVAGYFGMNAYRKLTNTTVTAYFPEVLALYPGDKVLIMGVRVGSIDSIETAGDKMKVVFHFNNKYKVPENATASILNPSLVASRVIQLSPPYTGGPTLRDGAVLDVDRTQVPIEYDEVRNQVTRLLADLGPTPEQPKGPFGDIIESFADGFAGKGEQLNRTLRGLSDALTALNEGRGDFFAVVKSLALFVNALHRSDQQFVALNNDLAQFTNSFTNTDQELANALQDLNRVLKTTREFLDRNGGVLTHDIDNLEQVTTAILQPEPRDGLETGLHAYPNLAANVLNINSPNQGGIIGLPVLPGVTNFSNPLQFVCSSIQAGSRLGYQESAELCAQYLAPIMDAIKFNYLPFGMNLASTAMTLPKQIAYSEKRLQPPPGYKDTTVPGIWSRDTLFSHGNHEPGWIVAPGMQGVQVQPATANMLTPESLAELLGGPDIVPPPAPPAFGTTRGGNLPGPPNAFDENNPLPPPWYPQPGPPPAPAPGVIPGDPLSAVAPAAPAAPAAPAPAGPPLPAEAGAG
UniProt A0QNR7: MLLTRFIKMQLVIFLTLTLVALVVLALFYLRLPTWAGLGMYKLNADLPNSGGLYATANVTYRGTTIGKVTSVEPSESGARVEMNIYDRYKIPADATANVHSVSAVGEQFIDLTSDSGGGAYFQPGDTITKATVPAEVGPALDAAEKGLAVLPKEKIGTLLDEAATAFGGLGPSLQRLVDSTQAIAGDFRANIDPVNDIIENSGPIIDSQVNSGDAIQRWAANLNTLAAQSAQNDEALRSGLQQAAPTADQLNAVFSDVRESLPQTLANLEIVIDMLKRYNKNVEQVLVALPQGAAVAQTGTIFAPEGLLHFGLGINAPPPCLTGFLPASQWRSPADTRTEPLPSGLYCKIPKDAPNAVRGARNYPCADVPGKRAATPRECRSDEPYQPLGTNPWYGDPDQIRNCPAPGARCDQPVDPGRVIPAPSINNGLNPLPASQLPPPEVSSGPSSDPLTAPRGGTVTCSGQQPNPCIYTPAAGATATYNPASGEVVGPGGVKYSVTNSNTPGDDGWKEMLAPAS
UniProt A0QNR1: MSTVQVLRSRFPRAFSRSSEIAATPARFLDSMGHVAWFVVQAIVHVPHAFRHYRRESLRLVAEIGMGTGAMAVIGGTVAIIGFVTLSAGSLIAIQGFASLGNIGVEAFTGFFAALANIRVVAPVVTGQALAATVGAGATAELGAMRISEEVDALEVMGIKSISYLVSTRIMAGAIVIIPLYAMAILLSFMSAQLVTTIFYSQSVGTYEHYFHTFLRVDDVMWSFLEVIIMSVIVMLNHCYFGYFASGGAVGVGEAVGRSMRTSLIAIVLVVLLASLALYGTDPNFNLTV
UniProt A0QNR2: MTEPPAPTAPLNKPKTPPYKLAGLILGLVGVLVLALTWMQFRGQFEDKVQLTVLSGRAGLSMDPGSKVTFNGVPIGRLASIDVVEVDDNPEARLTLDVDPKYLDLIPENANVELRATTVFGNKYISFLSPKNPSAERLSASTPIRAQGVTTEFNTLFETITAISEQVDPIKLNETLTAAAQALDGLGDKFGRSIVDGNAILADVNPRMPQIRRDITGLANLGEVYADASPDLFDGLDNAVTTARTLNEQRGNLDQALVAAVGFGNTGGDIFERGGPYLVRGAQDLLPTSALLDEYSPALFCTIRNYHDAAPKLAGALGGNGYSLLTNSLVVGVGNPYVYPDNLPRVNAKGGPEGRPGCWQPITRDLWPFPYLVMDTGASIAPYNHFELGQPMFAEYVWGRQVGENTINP
UniProt A0QNR3: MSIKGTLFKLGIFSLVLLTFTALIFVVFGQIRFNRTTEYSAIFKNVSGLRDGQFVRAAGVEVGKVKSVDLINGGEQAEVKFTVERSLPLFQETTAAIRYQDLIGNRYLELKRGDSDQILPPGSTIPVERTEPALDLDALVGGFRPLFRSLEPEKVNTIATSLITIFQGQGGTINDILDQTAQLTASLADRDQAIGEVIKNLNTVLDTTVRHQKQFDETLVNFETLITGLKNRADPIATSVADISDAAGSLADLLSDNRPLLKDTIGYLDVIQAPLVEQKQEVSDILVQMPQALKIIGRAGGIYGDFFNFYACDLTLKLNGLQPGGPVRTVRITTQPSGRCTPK
UniProt A0QWR2: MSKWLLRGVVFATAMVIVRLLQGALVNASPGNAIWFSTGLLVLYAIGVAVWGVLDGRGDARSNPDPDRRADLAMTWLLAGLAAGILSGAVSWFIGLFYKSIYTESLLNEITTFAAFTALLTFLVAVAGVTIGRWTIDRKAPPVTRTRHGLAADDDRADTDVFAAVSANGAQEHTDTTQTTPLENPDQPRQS
UniProt A0QNR0: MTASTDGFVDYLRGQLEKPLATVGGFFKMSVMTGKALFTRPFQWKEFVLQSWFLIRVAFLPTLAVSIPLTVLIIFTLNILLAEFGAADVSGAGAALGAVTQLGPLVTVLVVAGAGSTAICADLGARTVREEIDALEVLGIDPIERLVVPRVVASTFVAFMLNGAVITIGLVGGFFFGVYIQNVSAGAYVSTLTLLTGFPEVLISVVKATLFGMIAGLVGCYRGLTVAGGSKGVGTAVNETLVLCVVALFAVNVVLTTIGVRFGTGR

How the values were obtained:
Experiment in all cases: cryo-EM structure
[1] = target: Mce1C (Mycobacterium smegmatis (endogenous in mc2155)) (UniProt A0QNR4)
[2] = target: Mce1D (Mycobacterium smegmatis (endogenous in mc2155)) (UniProt A0QNR5)
[3] = target: Mce1F (Mycobacterium smegmatis (endogenous in mc2155)) (UniProt A0QNR7)
[4] = target: YrbE1B (Mycobacterium smegmatis (endogenous in mc2155)) (UniProt A0QNR1)
[5] = target: Mce1A (Mycobacterium smegmatis (endogenous in mc2155)) (UniProt A0QNR2)

With Mce1B (from UniProt A0QNR3) the binding [1] was “binds”.
With LucB (MSMEG_3032) (from UniProt A0QWR2) the binding [1] was “binds”.
Mce1C (from UniProt A0QNR4) was tested, and the binding [2] was “binds”.
With Mce1D (from UniProt A0QNR5) the binding [3] was “binds”.
With YrbE1B (from UniProt A0QNR1) the binding [3] was “binds”.
YrbE1A (from UniProt A0QNR0) was tested, and the binding [4] was “binds”.
With Mce1F (from UniProt A0QNR7) the binding [5] was “binds”.
